In the supplement of paper PMC8728848:
The other results are listed elsewhere or left out.

Experiments:
Test in all cases: glycan array binding signal (z-score within array); higher = stronger binding
Conditions in all cases: glycan notation: IUPAC condensed, linker removed
[1] = biological target: Fuc(a1-2)[Gal(a1-3)]Gal(b1-4)GlcNAc(b1-2)Man(a1-3)[Fuc(a1-2)[Gal(a1-3)]Gal(b1-4)GlcNAc(b1-2)Man(a1-6)]Man(b1-4)GlcNAc(b1-4)[Fuc(a1-6)]GlcNAc
Procedure, shortened: (§1)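 Columns mapping to the same glycan were averaged after glycan names were converted to IUPAC-condensed notation. The data come from 3228 arrays in the Consortium for Functional Glycomics database, limited to those with an available protein sequence. Binding is reported as a within-array Z-score averaged across arrays of one protein sequence and across linkers.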

[2] = biological target: Fuc(a1-2)[Gal(a1-3)]Gal(b1-4)GlcNAc(b1-3)GalNAc
Procedure, shortened: as §1

[3] = biological target: Fuc(a1-2)[Gal(a1-3)]Gal(b1-4)GlcNAc(b1-3)[Fuc(a1-2)[Gal(a1-3)]Gal(b1-4)GlcNAc(b1-6)]GalNAc
Procedure, shortened: as §1

[4] = biological target: Fuc(a1-2)[Gal(a1-3)]Gal(b1-4)GlcNAc(b1-6)GalNAc
Procedure, shortened: as §1

[5] = biological target: Fuc(a1-2)[Gal(a1-3)]Gal(b1-4)[Fuc(a1-3)]Glc
Procedure, shortened: as §1

[6] = biological target: Fuc(a1-2)[Gal(a1-3)]Gal(b1-4)[Fuc(a1-3)]GlcNAc
Procedure, shortened: as §1

[7] = biological target: Fuc(a1-2)[Gal(a1-3)]Gal(b1-4)[Fuc(a1-3)]GlcNAc(b1-3)GalNAc
Procedure, shortened: as §1

[8] = biological target: Fuc(a1-2)[Gal(a1-4)]Gal(b1-4)GlcNAc
Procedure, shortened: as §1

[9] = biological target: Fuc(a1-2)[GalNAc(a1-3)]Gal
Procedure, shortened: as §1

[10] = biological target: Fuc(a1-2)[GalNAc(a1-3)]Gal(b1-3)GalNAc(a1-3)[Fuc(a1-2)]Gal(b1-4)GlcNAc
Procedure, shortened: as §1

[11] = biological target: Fuc(a1-2)[GalNAc(a1-3)]Gal(b1-3)GalNAc(b1-3)Gal(a1-4)Gal(b1-4)Glc
Procedure, shortened: as §1

[12] = biological target: Fuc(a1-2)[GalNAc(a1-3)]Gal(b1-3)GlcNAc
Procedure, shortened: as §1

[13] = biological target: Fuc(a1-2)[GalNAc(a1-3)]Gal(b1-3)GlcNAc(b1-2)Man(a1-3)[Fuc(a1-2)[GalNAc(a1-3)]Gal(b1-3)GlcNAc(b1-2)Man(a1-6)]Man(b1-4)GlcNAc(b1-4)GlcNAc
Procedure, shortened: as §1

[14] = biological target: Fuc(a1-2)[GalNAc(a1-3)]Gal(b1-3)GlcNAc(b1-2)Man(a1-3)[Fuc(a1-2)[GalNAc(a1-3)]Gal(b1-3)GlcNAc(b1-2)Man(a1-6)]Man(b1-4)GlcNAc(b1-4)[Fuc(a1-6)]GlcNAc
Procedure, shortened: as §1

[15] = biological target: Fuc(a1-2)[GalNAc(a1-3)]Gal(b1-3)GlcNAc(b1-3)GalNAc
Procedure, shortened: as §1

[16] = biological target: Fuc(a1-2)[GalNAc(a1-3)]Gal(b1-3)GlcNAc(b1-6)GalNAc
Procedure, shortened: as §1

[17] = biological target: Fuc(a1-2)[GalNAc(a1-3)]Gal(b1-4)Glc
Procedure, shortened: as §1

[18] = biological target: Fuc(a1-2)[GalNAc(a1-3)]Gal(b1-4)GlcNAc
Procedure, shortened: as §1

[19] = biological target: Fuc(a1-2)[GalNAc(a1-3)]Gal(b1-4)GlcNAc(b1-2)Man
Procedure, shortened: as §1

[20] = biological target: Fuc(a1-2)[GalNAc(a1-3)]Gal(b1-4)GlcNAc(b1-2)Man(a1-3)[Fuc(a1-2)[GalNAc(a1-3)]Gal(b1-4)GlcNAc(b1-2)Man(a1-6)]Man(b1-4)GlcNAc(b1-4)GlcNAc
Procedure, shortened: as §1

[21] = biological target: Fuc(a1-2)[GalNAc(a1-3)]Gal(b1-4)GlcNAc(b1-2)Man(a1-3)[Fuc(a1-2)[GalNAc(a1-3)]Gal(b1-4)GlcNAc(b1-2)Man(a1-6)]Man(b1-4)GlcNAc(b1-4)[Fuc(a1-6)]GlcNAc
Procedure, shortened: as §1

[22] = biological target: Fuc(a1-2)[GalNAc(a1-3)]Gal(b1-4)GlcNAc(b1-3)Gal(b1-4)GlcNAc
Procedure, shortened: as §1

[23] = biological target: Fuc(a1-2)[GalNAc(a1-3)]Gal(b1-4)GlcNAc(b1-3)Gal(b1-4)GlcNAc(b1-3)Gal(b1-4)GlcNAc
Procedure, shortened: as §1

[24] = biological target: Fuc(a1-2)[GalNAc(a1-3)]Gal(b1-4)GlcNAc(b1-3)GalNAc
Procedure, shortened: as §1

[25] = biological target: Fuc(a1-2)[GalNAc(a1-3)]Gal(b1-4)GlcNAc(b1-3)[Fuc(a1-2)[GalNAc(a1-3)]Gal(b1-4)GlcNAc(b1-6)]GalNAc
Procedure, shortened: as §1

[26] = biological target: Fuc(a1-2)[GalNAc(a1-3)]Gal(b1-4)GlcNAc(b1-6)GalNAc
Procedure, shortened: as §1

[27] = biological target: Fuc(a1-2)[GalNAc(a1-3)]Gal(b1-4)[Fuc(a1-3)]GlcNAc
Procedure, shortened: as §1

[28] = biological target: Fuc(a1-2)[GalNAc(a1-3)]Gal(b1-4)[Fuc(a1-3)]GlcNAc(b1-3)GalNAc
Procedure, shortened: as §1

[29] = biological target: Fuc(a1-2)[GalNAc(a1-4)]Gal(b1-4)GlcNAc
Procedure, shortened: as §1

[30] = biological target: Fuc(a1-2)[GalNAc(b1-3)]Gal
Procedure, shortened: as §1

Fuc(a1-3)GlcNAc = biological target: Fuc(a1-3)GlcNAc
Procedure, shortened: as §1

[31] = biological target: Fuc(a1-3)[Gal(b1-4)]Glc6S
Procedure, shortened: as §1

[32] = biological target: Fuc(a1-3)[Gal(b1-4)]GlcNAc
Procedure, shortened: as §1

[33] = biological target: Fuc(a1-3)[Gal(b1-4)]GlcNAc(b1-2)Man
Procedure, shortened: as §1

[34] = biological target: Fuc(a1-3)[Gal(b1-4)]GlcNAc(b1-2)Man(a1-3)[Fuc(a1-3)[Gal(b1-4)]GlcNAc(b1-2)Man(a1-6)]Man(b1-4)GlcNAc(b1-4)GlcNAc
Procedure, shortened: as §1

[35] = biological target: Fuc(a1-3)[Gal(b1-4)]GlcNAc(b1-2)Man(a1-3)[Fuc(a1-3)[Gal(b1-4)]GlcNAc(b1-2)Man(a1-6)]Man(b1-4)GlcNAc(b1-4)[Fuc(a1-6)]GlcNAc
Procedure, shortened: as §1

[36] = biological target: Fuc(a1-3)[Gal(b1-4)]GlcNAc(b1-3)Gal(b1-3)[Fuc(a1-4)]GlcNAc
Procedure, shortened: as §1

[37] = biological target: Fuc(a1-3)[Gal(b1-4)]GlcNAc(b1-3)Gal(b1-4)[Fuc(a1-3)]GlcNAc
Procedure, shortened: as §1

[38] = biological target: Fuc(a1-3)[Gal(b1-4)]GlcNAc(b1-3)Gal(b1-4)[Fuc(a1-3)]GlcNAc(b1-3)Gal(b1-4)[Fuc(a1-3)]GlcNAc
Procedure, shortened: as §1

[39] = biological target: Fuc(a1-3)[Gal(b1-4)]GlcNAc(b1-3)GalNAc
Procedure, shortened: as §1

[40] = biological target: Fuc(a1-3)[Gal(b1-4)]GlcNAc(b1-6)GalNAc
Procedure, shortened: as §1

[41] = biological target: Fuc(a1-3)[Gal(b1-4)]GlcNAc(b1-6)[Gal(b1-3)GlcNAc(b1-3)]Gal(b1-4)Glc
Procedure, shortened: as §1

[42] = biological target: Fuc(a1-3)[Gal(b1-4)]GlcNAc6S
Procedure, shortened: as §1

[43] = biological target: Fuc(a1-3)[Gal3S(b1-4)]Glc
Procedure, shortened: as §1

[44] = biological target: Fuc(a1-3)[Gal3S(b1-4)]GlcNAc
Procedure, shortened: as §1

B1: EULS2 M3 (Oryza sativa) (protein)
chain: MVYCRANPNYAMTARNGAVVLAPANPKDEYQHWIKDMRWSTSIKDEEGYPAFALVNKATGQAIKHSLGQSHPVRLVPYNPEVMDESVLWTESRDVGNGFRCIRMVNNIYLNFDAFHGDKYHGGVRDGTDIVLWKLCEGDSLRWKIQPYYILEQKLISEEDLNSAVDHHHHHH
glycan array binding signal (z-score) [1]: 0.379
glycan array binding signal (z-score) [2]: -0.052
glycan array binding signal (z-score) [3]: -0.405
glycan array binding signal (z-score) [4]: 0.239
glycan array binding signal (z-score) [5]: -0.023
glycan array binding signal (z-score) [6]: -0.583
glycan array binding signal (z-score) [7]: -0.588
glycan array binding signal (z-score) [8]: -0.433
glycan array binding signal (z-score) [9]: -0.208
glycan array binding signal (z-score) [10]: -0.015
glycan array binding signal (z-score) [11]: -0.13
glycan array binding signal (z-score) [12]: -0.258
glycan array binding signal (z-score) [13]: -0.917
glycan array binding signal (z-score) [14]: 0.23
glycan array binding signal (z-score) [15]: -0.473
glycan array binding signal (z-score) [16]: 0.365
glycan array binding signal (z-score) [17]: -0.973
glycan array binding signal (z-score) [18]: 1.11
glycan array binding signal (z-score) [19]: -0.219
glycan array binding signal (z-score) [20]: 0.667
glycan array binding signal (z-score) [21]: 0.517
glycan array binding signal (z-score) [22]: 0.052
glycan array binding signal (z-score) [23]: -0.022
glycan array binding signal (z-score) [24]: -0.541
glycan array binding signal (z-score) [25]: 1.36
glycan array binding signal (z-score) [26]: -0.777
glycan array binding signal (z-score) [27]: -0.388
glycan array binding signal (z-score) [28]: -0.133
glycan array binding signal (z-score) [29]: -0.103
glycan array binding signal (z-score) [30]: -0.109
glycan array binding signal (z-score) (Fuc(a1-3)GlcNAc): -0.381
glycan array binding signal (z-score) [31]: 0.022
glycan array binding signal (z-score) [32]: -0.464
glycan array binding signal (z-score) [33]: 0.127
glycan array binding signal (z-score) [34]: -1.13
glycan array binding signal (z-score) [35]: -0.206
glycan array binding signal (z-score) [36]: 0.037
glycan array binding signal (z-score) [37]: 0.312
glycan array binding signal (z-score) [38]: 0.451
glycan array binding signal (z-score) [39]: -0.575
glycan array binding signal (z-score) [40]: -0.383
glycan array binding signal (z-score) [41]: -0.086
glycan array binding signal (z-score) [42]: -0.919
glycan array binding signal (z-score) [43]: 0.485
glycan array binding signal (z-score) [44]: -0.179
